Reference: publication PMC12857203
Results are given in words; binding and its absence hold for the method and conditions named. Binding seen in cells or lysates may run through a third protein. A result given as binding can be weak or reduced; the word gives no strength. Where a sequence is shown, tags or fusion partners need not be part of it.

Target: T1, SnRK2.3 split YFP fusion (Arabidopsis thaliana) (UniProt Q39193)
T1 sequence: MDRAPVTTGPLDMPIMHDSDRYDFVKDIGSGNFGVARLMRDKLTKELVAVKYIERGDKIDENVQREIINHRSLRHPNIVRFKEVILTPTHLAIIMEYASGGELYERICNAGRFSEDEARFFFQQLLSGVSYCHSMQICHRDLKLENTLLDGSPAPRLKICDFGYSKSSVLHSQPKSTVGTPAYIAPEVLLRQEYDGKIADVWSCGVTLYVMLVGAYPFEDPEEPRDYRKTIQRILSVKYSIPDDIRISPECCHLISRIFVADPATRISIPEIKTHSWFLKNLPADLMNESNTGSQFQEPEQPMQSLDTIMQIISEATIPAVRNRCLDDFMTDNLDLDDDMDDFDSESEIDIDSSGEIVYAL
Experiment: split reporter; BiFC with nYFP and cYFP fusions in N. benthamiana leaves infiltrated with Agrobacterium (with P19); fluorescence scored 2 to 4 d later

Row | Substance | binding
1 | AFP1 A domain split YFP fusion (Arabidopsis thaliana) (domain or fragment) | binds
2 | AFP1 B domain split YFP fusion (Arabidopsis thaliana) (domain or fragment) | binds
